Here are results for one molecule from article PMC9241942 (Microbiology Spectrum, 2022).

Structures are written as SMILES.

A short description of this series: Recovery of vancomycin standard spiked into reference stool aliquots. Also noted: species or system human.

As to `CN[C@H](CC(C)C)C(=O)N[C@H]1C(=O)N[C@@H](CC(N)=O)C(=O)N[C@H]2C(=O)N[C@H]3C(=O)N[C@H](C(=O)N[C@H](C(=O)O)c4cc(O)cc(O)c4-c4cc3ccc4O)[C@H](O)c3ccc(c(Cl)c3)Oc3cc2cc(c3O[C@@H]2O[C@H](CO)[C@@H](O)[C@H](O)[C@H]2O[C@H]2C[C@](C)(N)[C@H](O)[C@H](C)O2)Oc2ccc(cc2Cl)[C@H]1O` [vancomycin], the “Recovery (mean ± SD, %)” value by setting is: (1 μg spiked, mean of aliquots A1-A3) 110 ± 10%; (10 μg spiked, mean of aliquots A4-A6) 85 ± 5%; (50 μg spiked, mean of aliquots A7-A9) 88 ± 5%; (150 μg spiked, mean of aliquots A10-A12) 93 ± 1%.
